# Screening data, single-dose tests

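Assay of Toxoplasma gondii numbers, read through their beta-galactosidase reporter with a colour substrate. Concentration: 10 µM. The record gives no direction; the compounds picked for IC50 retests had high values, so higher reads as fewer parasites. About 67,000 compounds were tested under these conditions; 0.38% (about 260) showed 50% or more at least once.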

Results are given as percent effect.
How 0% and 100% were set is not recorded. Most values in the screen are low, and negative values occur.
The compounds are a random part of those screened.

For COCC(=O)N1CCN(Cc2nnc(C(C)(C)C)o2)CC1 the result was 2.402%.
For CS(=O)(=O)NCC1CCCN(C(=O)c2cc3ccccc3o2)C1 (stereo not shown) the result was -1.446%.
For CCCN(C(=O)c1cc2c([nH]c1=O)CCCC2=O)C1CCCCC1 the result was -1.641%.
For CCn1cc(CN2CCCN(C(=O)c3ccn(C)c(=O)c3)CC2)cn1 the result was 1.595%.
For O=S(=O)(NCC1CCOc2ccccc2C1)N1CCOCC1 (stereo not shown) the result was 2.876%.
For CCNc1ncc(C(=O)NCCNc2ccncc2C)cn1 the result was -14.43%.
For Cc1ccc(NC2CCN(C(=O)CCCc3cccs3)CC2)nn1 the result was -4.348%.
For NC(=O)c1ccc(NC2CCOC3(CCCC3)C2)nn1 (stereo not shown) the result was 0.2295%.
For O=C(O)C(F)(F)F.O=C(O)C(F)(F)F.[H][C@@]12CN(CCN3CCCC3)CC[C@]1([H])CN(c1cnccn1)C2 the result was -18.91%.
For c1coc(-c2nnc([C@H]3CCN(Cc4ccc5c(c4)OCO5)C3)o2)c1 the result was -1.264%.
For CC(=O)N1CCCC2(C1)CN(C(=O)C1CCCCC1)CCO2 (stereo not shown) the result was 8.452%.
For Cc1nc(C)n(CC2CCCN(Cc3cccc(C#N)c3)C2)n1 (stereo not shown) the result was 9.822%.
For O=C(O)C(F)(F)F.[H][C@]12CN(CC)C[C@@]1(C(=O)O)CCCN(c1cc(OC)ncn1)C2 the result was 2.596%.
For CN(C)c1cc(CNC(=O)Nc2ccc(N3CCCC3)nc2)ccn1 the result was -1.487%.
For COCCc1noc(CN2CCCCC2Cn2cc(C)cn2)n1 (stereo not shown) the result was -5.94%.
For Cc1ccc(-c2cn(C3CCN(C(=O)[C@H]4CCCO4)CC3)nn2)cc1 the result was 11.96%.
For COc1ccc(-c2cnc(CN3CCCC3Cn3cccn3)o2)cc1 (stereo not shown) the result was -14.56%.
For O=C(O)C(F)(F)F.[H][C@@]12CCC(=O)N(c3ccccc3)[C@]1([H])CCN2C(=O)c1cccc(C)n1 the result was -4.199%.
For CS(=O)(=O)N1CCCC(C(=O)Nc2cnn(Cc3ccc(F)cc3)c2)C1 (stereo not shown) the result was -12.77%.
For O=C(O)C(F)(F)F.[H][C@]12CCN(S(=O)(=O)c3cccs3)C[C@@]1([H])OCCN(C)C2 the result was 6.203%.
For CSCC(=O)N1CCc2c(cnc(C)c2-c2noc(-c3ccco3)n2)C1 the result was -4.023%.
For O=C(c1nc(-c2ccc3cc[nH]c3c2)no1)N1CCCC1 the result was -1.435%.
For Cn1cnnc1S(=O)(=O)C1CCN(S(=O)(=O)c2c(Cl)cccc2Cl)CC1 the result was -3.284%.
For COc1ccccc1CC(=O)N1CCCC(CNS(C)(=O)=O)C1 (stereo not shown) the result was 0.5289%.
For COc1ccc(Cn2cc(C(=O)N(C)Cc3ccon3)nn2)cc1 the result was 8.586%.
For CC(C)(C)C(=O)N1CCC2(CNS(=O)(=O)c3cnccc3O2)C1 (stereo not shown) the result was -5.203%.
For O=C(CN1CCCCCC1)N1CCc2nnc(C3CCCNC3)n2CC1 (stereo not shown) the result was 2.314%.
For O=C(O)C(F)(F)F.[H][C@@]12CN(Cc3csc(C)n3)C[C@]1([H])CN(C(=O)c1cccn1C)C2 the result was -19.12%.
For O=C(O)C(F)(F)F.O=C(O)C(F)(F)F.[H][C@@]12COC[C@@H](N3CCCC3)[C@]1([H])CN(Cc1ccc3c(c1)OCO3)C2 the result was -16.96%.
For COCC[C@]1(O)CCN(C(=O)CCn2c(C)cccc2=O)C[C@H]1C the result was -10.11%.
For CCNC(=O)[C@@H]1C[C@H](NC(=O)Cn2ccnc2)CN1Cc1ccsc1 the result was -33.04%.
For CNc1nc(CNC(=O)Nc2cccc(C)c2Cl)cs1 the result was -7.341%.
For Cc1cc(C(=O)N2CCc3nnc(N)cc3C2)c(C)n1-c1ccccc1 the result was 6.702%.
For CCCc1c(C(=O)N2CCN(c3cnccn3)CC2)cnn1C the result was 1.125%.
For O=C(c1ccccn1)N1CCC(S(=O)(=O)c2ccccc2)C1 (stereo not shown) the result was -14.38%.
For CN1CC2(CCCN(Cc3ccccc3OCC(=O)O)C2)OC1=O (stereo not shown) the result was -0.2157%.
For Cc1ccc(CNC(c2ccccc2)c2nccn2C)cc1C (stereo not shown) the result was -1.723%.

Some entries from above, unchanged:

| SMILES | Percent Effect |
|---|---|
| `CCCN(C(=O)c1cc2c([nH]c1=O)CCCC2=O)C1CCCCC1` | -1.641 |
| `CS(=O)(=O)N1CCCC(C(=O)Nc2cnn(Cc3ccc(F)cc3)c2)C1` (stereo not shown) | -12.77 |

The values are deposited in ChEMBL (CHEMBL3988442, “University of Dundee, Small-Polar-MMV Screening Library” (2021)).